Test results from paper PMC6065180, “An allosteric propofol-binding site in kinesin disrupts kinesin-mediated processive movement on microtubules” (The Journal of Biological Chemistry, 2018).
These are yes or no findings as the source states them, for the method shown. Some binding calls cover weakened binding; strength is not graded here. Where a sequence is shown, tags or fusion partners need not be part of it.

The chains behind the UniProt entries cited, without tags or fusion partners. Where a name states a change or a piece, a line headed by the entry shows the natural chain unless it says otherwise. A line that says so, or that is headed by a name, gives the form on record, which may keep a tag or linker.
KIF3A-AHD (mouse KIF3A(Met1-Glu376) with acidic synthetic heterodimerization helix and StrepII tag) (P28741, form named): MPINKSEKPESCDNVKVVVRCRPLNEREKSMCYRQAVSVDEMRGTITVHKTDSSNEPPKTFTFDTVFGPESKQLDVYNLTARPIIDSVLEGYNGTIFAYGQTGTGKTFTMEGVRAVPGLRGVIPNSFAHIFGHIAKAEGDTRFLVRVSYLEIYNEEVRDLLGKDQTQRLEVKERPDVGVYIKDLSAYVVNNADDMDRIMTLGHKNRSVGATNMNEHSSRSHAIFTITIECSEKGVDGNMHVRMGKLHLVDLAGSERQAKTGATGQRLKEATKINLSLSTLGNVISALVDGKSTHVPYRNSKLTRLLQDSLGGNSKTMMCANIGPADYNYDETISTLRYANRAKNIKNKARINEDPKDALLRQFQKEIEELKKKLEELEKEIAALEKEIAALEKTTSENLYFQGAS
KIF3A-EB1 (mouse KIF3A(Met1-Leu374)-EB1 with StrepII tag) (P28741, form named): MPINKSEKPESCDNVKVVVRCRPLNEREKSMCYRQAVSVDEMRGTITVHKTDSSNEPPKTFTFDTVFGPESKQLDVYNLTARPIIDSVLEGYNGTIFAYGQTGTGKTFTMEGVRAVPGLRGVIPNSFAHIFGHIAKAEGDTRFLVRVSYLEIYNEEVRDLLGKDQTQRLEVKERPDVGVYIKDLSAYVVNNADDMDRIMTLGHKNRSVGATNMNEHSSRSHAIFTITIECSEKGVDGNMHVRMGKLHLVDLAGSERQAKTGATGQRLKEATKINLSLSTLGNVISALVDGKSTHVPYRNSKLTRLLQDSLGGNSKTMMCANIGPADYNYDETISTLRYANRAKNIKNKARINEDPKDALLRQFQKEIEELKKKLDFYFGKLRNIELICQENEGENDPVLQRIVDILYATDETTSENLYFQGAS

B1: KIF3B-BHD (mouse KIF3B(Met1-Lys371) with basic synthetic heterodimerization helix and His8 tag) (domain or fragment, UniProt Q61771 1-371)
chain: MSKLKSSESVRVVVRCRPMNGKEKAASYDKVVDVDVKLGQVSVKNPKGTSHEMPKTFTFDAVYDWNAKQFELYDETFRPLVDSVLQGFNGTIFAYGQTGTGKTYTMEGVRGDPEKRGVIPNSFDHIFTHISRSQNQQYLVRASYLEIYQEEIRDLLSKDQTKRLELKERPDTGVYVKDLSSFVTKSVKEIEHVMNVGNQNRSVGATNMNEHSSRSHAIFVITIECSEVGLDGENHIRVGKLNLVDLAGSERQAKTGAQGERLKEATKINLSLSALGNVISALVDGKSTHIPYRDSKLTRLLQDSLGGNAKTVMVANVGPASYNVEETLTTLRYANRAKNIKNKPRVNEDPKDALLREFQEEIARLKAQLEKLKEKIAALKEKIAALKETTSENLYFQGAS
B2: KIF3C (mouse KIF3C(Met1-Leu396)-EB1 with His8 tag), single chain (domain or fragment, UniProt O35066 1-396)
chain: MASKTKASEALKVVARCRPLSRKEEAAGHEQILTMDVKLGQVTLRNPRAAPGELPKTFTFDAVYDASSKQADLYDETVRPLIDSVLQGFNGTVFAYGQTGTGKTYTMQGTWVEPELRGVIPNAFEHIFTHISRSQNQQYLVRASYLEIYQEEIRDLLSKEPGKRLELKENPETGVYIKDLSSFVTKNVKEIEHVMNLGNQARAVGSTHMNEVSSRSHAIFVITVECSERGSDGQDHIRVGKLNLVDLAGSERQNKAGPNAAGGPATQPTAGGGSGSGSASGSASSGERPKEASKINLSLSALGNVIAALAGNRSTHIPYRDSKLTRLLQDSLGGNAKTIMVATLGPASHSYDESLSTLRFANRAKNIKNKPRVNEDPKDTLLREFQEEIARLKAQLDFYFGKLRNIELICQENEGENDPVLQRIVDILYATDETTSENLYFQGAS

Columns and labels:
[1] = target: KIF3A-AHD (mouse KIF3A(Met1-Glu376) with acidic synthetic heterodimerization helix and StrepII tag) (mouse) (UniProt P28741); experiment: sequential affinity co-purification; the two chains co-expressed in E. coli; clarified lysate on HisTrap Ni-NTA (His8 chain), then the pooled fractions on StrepTactin (StrepII chain); fractions with a 1:1 ratio of the two polypeptides on SDS-PAGE pooled
[2] = target: KIF3A-EB1 (mouse KIF3A(Met1-Leu374)-EB1 with StrepII tag) (mouse | not stated) (UniProt P28741); experiment: as above

| Binder | binding [1] | binding [2] |
| --- | --- | --- |
| B1 | binds | – |
| B2 | – | binds |
